# Assay results reported in PMC7819943, “Rice protein-binding microarrays: a tool to detect cis-acting elements near promoter regions in rice”.
# The chains behind the UniProt entries cited, without tags or fusion partners.
# UniProt Q0JBA9, entry or part of it: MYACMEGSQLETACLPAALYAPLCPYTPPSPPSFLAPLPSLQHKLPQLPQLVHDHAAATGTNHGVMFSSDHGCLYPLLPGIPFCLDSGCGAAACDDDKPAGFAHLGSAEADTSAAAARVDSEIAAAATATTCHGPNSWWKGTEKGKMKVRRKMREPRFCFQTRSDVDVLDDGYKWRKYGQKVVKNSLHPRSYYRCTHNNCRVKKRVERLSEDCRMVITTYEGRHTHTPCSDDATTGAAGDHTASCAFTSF
# The list shows a part of the results.
# Molecular target: OsWRKY34 (Oryza sativa, UniProt Q0JBA9 1-250)
# Assay: protein-binding microarray (RPBM); PBS, 2% BSA, 51.3 ng/ul salmon testes DNA, 50 uM zinc acetate, 200 nM TF, 25 C, 1 h; high values mean tight binding
# Conditions: protein: recombinant; tags: N-terminal polyhistidine and DsRed monomer fusion (pET32a); label: CyDye5-dUTP incorporated in the synthesized complementary strand; 3' TTTTT single-stranded linker to array surface; dsDNA, one strand shown
# Summary of the method: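 Transcription factors were made in E. coli BL21-CodonPlus as N-terminal fusions to a polyhistidine tag and DsRed, then purified on Ni–NTA. After primer extension with Cy5-dUTP and blocking with 2% BSA, a custom Agilent array was exposed for 1 h at 25 °C to 200 nM protein in PBS, 2% BSA, salmon testes DNA and 50 µM zinc acetate. Washed arrays were scanned on an Axon 4000B, and the binding signal is per-feature fluorescence intensity in arbitrary units.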
row,Sequence,binding signal
1,CTCTCCTCTCCTCTCCTCGCGACAGCGCCGCCCCAAAAACCGGAGTCACCTAGTGCAG,8280 fluorescence intensity (a.u.)
2,TTGGATGCTCCGTTTCTCCTCCCTGCAGCGCCATGCGCACCGGAGTCACCTAGTGCAG,8150 fluorescence intensity (a.u.)
3,TGAAATCGAACTGCCTGGTTGGTGGAAATGGTTGACCAAGCGGAGTCACCTAGTGCAG,8290 fluorescence intensity (a.u.)
4,CGGCCCGCAAATTCTAGTCTTGTTATGGGCCGTCACAGATCGGAGTCACCTAGTGCAG,8050 fluorescence intensity (a.u.)
5,TCTCAGCGGCCCGAACCTGTATACATCGCCGGCGTCTTGTCGGAGTCACCTAGTGCAG,9160 fluorescence intensity (a.u.)
6,TAAAATTCATCGGACTCCATATGTGCAGGTGGTGGTGGGGCGGAGTCACCTAGTGCAG,10400 fluorescence intensity (a.u.)
7,TCTGGACCGTCCATCCGCGCGCTTCTCTTCCTCCACCGCACGGAGTCACCTAGTGCAG,10100 fluorescence intensity (a.u.)
8,TATCTCTCTCCCGCTGACAACCCGGTCACACCGAACCAACCGGAGTCACCTAGTGCAG,8990 fluorescence intensity (a.u.)
9,AAATGGGTTTATGGGTTGACCCACTTACATCATCTCTAGACGGAGTCACCTAGTGCAG,8660 fluorescence intensity (a.u.)
10,TCTCCCTCACTCGCTTTTGACTCGAACCAGTCCGCTCTCTCGGAGTCACCTAGTGCAG,10800 fluorescence intensity (a.u.)
11,ACACCTTCATCCGTCCATCATCTCTGCGCCGCCGCCACCGCGGAGTCACCTAGTGCAG,8700 fluorescence intensity (a.u.)
12,TGTGTTTGTGTTGTGTGTGTGAGAGAGAGAGGCGAAGAAACGGAGTCACCTAGTGCAG,9540 fluorescence intensity (a.u.)
13,GCTTCTACTCCTTTTCAACCTGTCTTTGTCTCCCTCCGCCCGGAGTCACCTAGTGCAG,8750 fluorescence intensity (a.u.)
14,CAATTCTCCAACTTCCACGTGGGCCCCAGAACAAAAATCCCGGAGTCACCTAGTGCAG,8830 fluorescence intensity (a.u.)
15,TTACACCCTTATTTTTTACGCGCACGCTTCCCGAACCGTACGGAGTCACCTAGTGCAG,8280 fluorescence intensity (a.u.)
16,GGTGTAGGTGGGTATAATAAATGTATGAATTACTTCGAATCGGAGTCACCTAGTGCAG,11600 fluorescence intensity (a.u.)
17,AGAGATGGTTTGCTGTTAATTTTGCAATGTGGATGGCTGTCGGAGTCACCTAGTGCAG,8210 fluorescence intensity (a.u.)
18,AATTTTGTATATTCGTTTGCACGTTTTTAAAACTCCTAAACGGAGTCACCTAGTGCAG,65500 fluorescence intensity (a.u.)
19,TTCTTCCCTTTCCATTTCTCCCTTTTCCTACCTCGCCTCGCGGAGTCACCTAGTGCAG,8260 fluorescence intensity (a.u.)
20,CACCTTGACTCAGCGTGGTTGACTCTAGTCAACTTGTCACCGGAGTCACCTAGTGCAG,10400 fluorescence intensity (a.u.)
21,GGTTTTGACAATTGAGGGACACGTTCTATCTGGTTTTCCGCGGAGTCACCTAGTGCAG,8290 fluorescence intensity (a.u.)

row,Sequence,binding signal
1,AGGTTTCTTTTGGGCATAGTTCTTGCTTTTACCTTTTTTTCGGAGTCACCTAGTGCAG,14100 fluorescence intensity (a.u.)
2,TCTACTCCCTCCGTTGCAGGTTATAAGATGTTTTGACTTTCGGAGTCACCTAGTGCAG,9240 fluorescence intensity (a.u.)
3,CAGGAGTACTATCTTTTATACCGGTCAACGCACAGCTTACCGGAGTCACCTAGTGCAG,9170 fluorescence intensity (a.u.)
4,GCCATCAAACTTGACGCAACAGCCCATCGTCTGATCCATCCGGAGTCACCTAGTGCAG,10000 fluorescence intensity (a.u.)
5,ATGATGAGTATATAATTTTTTATTGCATGATTACTGTTCTCGGAGTCACCTAGTGCAG,9150 fluorescence intensity (a.u.)
6,CGCACACGCACACACGCACTCGCACTACTCGAACCACGCGCGGAGTCACCTAGTGCAG,8950 fluorescence intensity (a.u.)
7,TATGTTTGTTGCACTTTGATTATTTGGGTGTTTCATTATCCGGAGTCACCTAGTGCAG,10300 fluorescence intensity (a.u.)
8,TTTCTAATAATGTGCTGACTCTTGCTATTGGATTAACTATCGGAGTCACCTAGTGCAG,9690 fluorescence intensity (a.u.)
9,CCAATCACAACATTCTTCCATTTAATTCTACCAACATTTTCGGAGTCACCTAGTGCAG,8040 fluorescence intensity (a.u.)
10,TGATCCATCCCAGTCCCAGTACCCCACACGCAACTGGCTCCGGAGTCACCTAGTGCAG,8720 fluorescence intensity (a.u.)
11,TACTTTTGCTGGTTTTATCAATCCAAACCATGAATGCTGCCGGAGTCACCTAGTGCAG,8050 fluorescence intensity (a.u.)
12,GTCGATGCGTGTTTCCTGTTCGTTTGGGTGGCCTGATGCCCGGAGTCACCTAGTGCAG,8840 fluorescence intensity (a.u.)
13,ATCGCCACACTTATAACATGCCATATTTTCTTTTAACTTACGGAGTCACCTAGTGCAG,9690 fluorescence intensity (a.u.)
14,TTCTTTCTGTGCATTCCAGGTCGGATTTCGGGCACTTCGCCGGAGTCACCTAGTGCAG,9120 fluorescence intensity (a.u.)
15,CCTCTCTAGATCTTTTCCCTCTAAACAATTCAGAATTTTCCGGAGTCACCTAGTGCAG,8850 fluorescence intensity (a.u.)
16,CACCGTTGCCCGCCTACCACTACTACCACTGATCACACTTCGGAGTCACCTAGTGCAG,14300 fluorescence intensity (a.u.)
17,TATTTAATTACCTCACGCACATTCTTTTCTCAGCAAATCACGGAGTCACCTAGTGCAG,8290 fluorescence intensity (a.u.)
18,CTACACACAGCTTAGTCCTGCTACCTCGCCGGCGCAAACGCGGAGTCACCTAGTGCAG,9340 fluorescence intensity (a.u.)
19,TACCCGCAGCCACCCGCCGCTGACGGTCAACCCACCTTCGCGGAGTCACCTAGTGCAG,8150 fluorescence intensity (a.u.)
20,CTCTCTCGTCTCTCTCTCTCTCTCTCACTCTCAGCTCTCTCGGAGTCACCTAGTGCAG,8360 fluorescence intensity (a.u.)
21,TCTCGTCCGACGCTTCAACCCGCACCGATCCTGCGCCACCCGGAGTCACCTAGTGCAG,8740 fluorescence intensity (a.u.)

row,Sequence,binding signal
1,TCTCCACTCCTACTTCCCGGTCTCGAGCTACACCAAACACCGGAGTCACCTAGTGCAG,8710 fluorescence intensity (a.u.)
2,TTCTTAATACTTATTGTTCTATTGTTCTAGTAGTCCACCGCGGAGTCACCTAGTGCAG,11500 fluorescence intensity (a.u.)
3,TCTTATTCTTAGACTCGTTAATGCATTTTTATATTTTACACGGAGTCACCTAGTGCAG,10200 fluorescence intensity (a.u.)
4,TGACGATGGCCCATCTTTTCCTGTTCAATCTCATCCGTCTCGGAGTCACCTAGTGCAG,8270 fluorescence intensity (a.u.)
5,GATGTCGGTAGTTGGCTTTCTTTTTTGTTGCTCGGACTGACGGAGTCACCTAGTGCAG,8560 fluorescence intensity (a.u.)
6,CTTGTTCTTGTTCTTGTTCTTGTTGCAAAGATTCGAGAGACGGAGTCACCTAGTGCAG,8270 fluorescence intensity (a.u.)
7,GCCTTCATTTCCACCCACTTGCCAACATCCATCTTTTCCGCGGAGTCACCTAGTGCAG,9910 fluorescence intensity (a.u.)
8,AACCGAAATCACTTTGGCAGCATGTTTTCCTCTGTAACCACGGAGTCACCTAGTGCAG,9350 fluorescence intensity (a.u.)
9,AAAGATTACTTCTCAGATCATGCCCTATTCAGACTATTTTCGGAGTCACCTAGTGCAG,8570 fluorescence intensity (a.u.)
10,CGCACTCACTGCCGACGCCATCCTCGATCTCCCTCGCACCCGGAGTCACCTAGTGCAG,8540 fluorescence intensity (a.u.)
11,TCTTGCTGGTACCAATTAACATGGGTATGTTTAATTTGCTCGGAGTCACCTAGTGCAG,8230 fluorescence intensity (a.u.)
12,GCCCACTCGTCACTGACTCTGTACTAGTACCCACGCCACGCGGAGTCACCTAGTGCAG,13900 fluorescence intensity (a.u.)
13,AGCCTGTTCACTTTGATGCCATTTTCTGATAAAGTTGCTACGGAGTCACCTAGTGCAG,9600 fluorescence intensity (a.u.)
14,ATCTATTACAATCATCTCGATTTTAGTTTTTCTAGTTCCTCGGAGTCACCTAGTGCAG,8920 fluorescence intensity (a.u.)
15,AATCGTTTTCTTTCTTGTCTTCAAACTTATTTTCCCGTTTCGGAGTCACCTAGTGCAG,9600 fluorescence intensity (a.u.)
16,CTGATTTCTTAATTTCCGGCTTCTAATTTGTTTTTCAATTCGGAGTCACCTAGTGCAG,10900 fluorescence intensity (a.u.)
17,CTCGCCCTCAACTCCGCCCGCGTCTCCGCCGCCTTCCACGCGGAGTCACCTAGTGCAG,10500 fluorescence intensity (a.u.)
18,CGCGCCGCCGCTCTCTCTCTCTCTCTCTCTCTCTCTCTCTCGGAGTCACCTAGTGCAG,8820 fluorescence intensity (a.u.)
19,GGATTGATAGTCTTGAGGAGGTTCTTGTTCAGCTTTTTAGCGGAGTCACCTAGTGCAG,9440 fluorescence intensity (a.u.)
20,TTGTCCTTCGGTCAGCACCGACGCCGCCGTCTCGCTCGCTCGGAGTCACCTAGTGCAG,8210 fluorescence intensity (a.u.)
21,ATCCAACTGGTCCAACTCCTCCAATCGTTTGCTTCTTCTTCGGAGTCACCTAGTGCAG,8960 fluorescence intensity (a.u.)

# Pulled one by one from above (two):
row,Sequence,binding signal
14,CAATTCTCCAACTTCCACGTGGGCCCCAGAACAAAAATCCCGGAGTCACCTAGTGCAG,8830 fluorescence intensity (a.u.)
14,TTCTTTCTGTGCATTCCAGGTCGGATTTCGGGCACTTCGCCGGAGTCACCTAGTGCAG,9120 fluorescence intensity (a.u.)

# Additional results follow:

row,Sequence,binding signal
1,TTAGCTTCACCCCTAGTGTTCACAATTACGGCTAACTATTCGGAGTCACCTAGTGCAG,8750 fluorescence intensity (a.u.)
2,CACACATAATTCCATCACATCGTTTCAATTTTAATGAAACCGGAGTCACCTAGTGCAG,8130 fluorescence intensity (a.u.)
3,GTGACTCTTCTGTCCACTGCACACGCCGTTTTGAAATTTCCGGAGTCACCTAGTGCAG,10600 fluorescence intensity (a.u.)
4,CCACATTTTCTGTTCCTTTGCAGCTGAGTTACTTTTATCACGGAGTCACCTAGTGCAG,9570 fluorescence intensity (a.u.)
5,TGGTACTGTAGCGGTGCTCTTTCTTTGGTGGGTGCCACGTCGGAGTCACCTAGTGCAG,8250 fluorescence intensity (a.u.)
6,GTCAGCCCCGTCGTCGCCGGTCCGTCGCCGCCCGCGTCAGCGGAGTCACCTAGTGCAG,8310 fluorescence intensity (a.u.)
7,TCTCATGCATTGCCTCGTTTTTCTCTATAGACTATCTATACGGAGTCACCTAGTGCAG,11300 fluorescence intensity (a.u.)
8,AAAACACCAAATTAGTTTTATTAAAACTAACTTTCAAATACGGAGTCACCTAGTGCAG,11900 fluorescence intensity (a.u.)
9,ACTGAGTTGTGTTTGTATTTGTAGAGGGATGAGGTTGTAGCGGAGTCACCTAGTGCAG,8260 fluorescence intensity (a.u.)
10,CTTCTTCTTCTTCTCCAAGCCGCCGCCTCGCATTAACTCACGGAGTCACCTAGTGCAG,11900 fluorescence intensity (a.u.)
11,CCACACCGCATCGTCATCTACACATCTCCACCTCCCGCGGCGGAGTCACCTAGTGCAG,8910 fluorescence intensity (a.u.)
12,TCTTCTTGTGTTGTGCTTGTGCCTCCTCATTATTAATATCCGGAGTCACCTAGTGCAG,9690 fluorescence intensity (a.u.)
13,AGTACTCGAATGCATCCCGGGCGTCCTCGCCATGATCGACCGGAGTCACCTAGTGCAG,8260 fluorescence intensity (a.u.)
14,GGTGTGTTTTTCTCATTATTTTATTTCTTAAGGTTGAACCCGGAGTCACCTAGTGCAG,8660 fluorescence intensity (a.u.)
15,TACCTCTCTTCTCTTCTCCAATCTCTATCTATGTCTTCTTCGGAGTCACCTAGTGCAG,8640 fluorescence intensity (a.u.)
16,GGCTTCTTTTTCGCTTGCCATTCGCGTGGAGGCGTTTCGACGGAGTCACCTAGTGCAG,8030 fluorescence intensity (a.u.)
17,TCGTCCCTATTAGGATAGTACTAGATTTTACCTTACTTTTCGGAGTCACCTAGTGCAG,8240 fluorescence intensity (a.u.)
18,CCTCTCTCTCTCTCTCTCTCTCCTCTGCCTTCTCCGAGAACGGAGTCACCTAGTGCAG,9720 fluorescence intensity (a.u.)
19,CTTTGGTCCTCACAGCCTCGACAATTATGTTACCGCGATCCGGAGTCACCTAGTGCAG,8940 fluorescence intensity (a.u.)
20,CATCCCAATTTTCTGGCCACACTTGCATCCCTCTGCCGCCCGGAGTCACCTAGTGCAG,10800 fluorescence intensity (a.u.)
21,TTTGTTTTTGGTACATTCATGCCGTCTGCTGCATCTATCACGGAGTCACCTAGTGCAG,9300 fluorescence intensity (a.u.)

# Reprinted from the entries so far for reference:
row,Sequence,binding signal
3,GTGACTCTTCTGTCCACTGCACACGCCGTTTTGAAATTTCCGGAGTCACCTAGTGCAG,10600 fluorescence intensity (a.u.)
4,CCACATTTTCTGTTCCTTTGCAGCTGAGTTACTTTTATCACGGAGTCACCTAGTGCAG,9570 fluorescence intensity (a.u.)
5,TGGTACTGTAGCGGTGCTCTTTCTTTGGTGGGTGCCACGTCGGAGTCACCTAGTGCAG,8250 fluorescence intensity (a.u.)
6,GTCAGCCCCGTCGTCGCCGGTCCGTCGCCGCCCGCGTCAGCGGAGTCACCTAGTGCAG,8310 fluorescence intensity (a.u.)
